Data reported in the supplement of paper PMC10849652.
The other results are listed elsewhere or left out.

The chains behind the UniProt entries cited, without tags or fusion partners. Where a name states a change or a piece, a line headed by the entry shows the natural chain unless it says otherwise.
UniProt Q05193: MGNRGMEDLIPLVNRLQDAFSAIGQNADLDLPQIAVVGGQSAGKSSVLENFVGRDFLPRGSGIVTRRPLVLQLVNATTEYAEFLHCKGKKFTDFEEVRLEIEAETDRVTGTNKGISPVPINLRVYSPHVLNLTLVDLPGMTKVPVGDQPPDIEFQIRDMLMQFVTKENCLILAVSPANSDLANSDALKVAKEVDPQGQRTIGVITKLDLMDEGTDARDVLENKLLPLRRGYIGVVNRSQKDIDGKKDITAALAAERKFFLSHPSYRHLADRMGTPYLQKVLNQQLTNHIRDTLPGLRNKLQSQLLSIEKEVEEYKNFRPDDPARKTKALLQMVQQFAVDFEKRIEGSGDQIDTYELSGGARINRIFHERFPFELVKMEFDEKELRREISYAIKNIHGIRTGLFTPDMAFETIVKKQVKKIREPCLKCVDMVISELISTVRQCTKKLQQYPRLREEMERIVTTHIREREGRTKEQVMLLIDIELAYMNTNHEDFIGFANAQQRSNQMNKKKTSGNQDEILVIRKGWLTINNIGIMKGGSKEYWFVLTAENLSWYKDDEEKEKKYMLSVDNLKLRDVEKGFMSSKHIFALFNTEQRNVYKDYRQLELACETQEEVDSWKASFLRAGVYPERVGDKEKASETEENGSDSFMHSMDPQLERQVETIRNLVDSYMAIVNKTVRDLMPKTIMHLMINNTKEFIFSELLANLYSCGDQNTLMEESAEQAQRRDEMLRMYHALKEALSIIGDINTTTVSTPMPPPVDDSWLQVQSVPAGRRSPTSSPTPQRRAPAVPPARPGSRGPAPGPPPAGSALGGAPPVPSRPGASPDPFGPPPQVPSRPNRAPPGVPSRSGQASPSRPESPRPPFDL
UniProt Q15125: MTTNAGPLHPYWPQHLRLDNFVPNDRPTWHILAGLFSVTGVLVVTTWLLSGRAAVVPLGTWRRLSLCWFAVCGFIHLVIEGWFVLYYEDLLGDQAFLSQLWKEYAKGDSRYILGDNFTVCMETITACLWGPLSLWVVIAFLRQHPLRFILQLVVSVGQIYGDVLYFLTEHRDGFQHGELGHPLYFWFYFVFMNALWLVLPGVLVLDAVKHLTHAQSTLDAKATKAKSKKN
UniProt Q9BQ95: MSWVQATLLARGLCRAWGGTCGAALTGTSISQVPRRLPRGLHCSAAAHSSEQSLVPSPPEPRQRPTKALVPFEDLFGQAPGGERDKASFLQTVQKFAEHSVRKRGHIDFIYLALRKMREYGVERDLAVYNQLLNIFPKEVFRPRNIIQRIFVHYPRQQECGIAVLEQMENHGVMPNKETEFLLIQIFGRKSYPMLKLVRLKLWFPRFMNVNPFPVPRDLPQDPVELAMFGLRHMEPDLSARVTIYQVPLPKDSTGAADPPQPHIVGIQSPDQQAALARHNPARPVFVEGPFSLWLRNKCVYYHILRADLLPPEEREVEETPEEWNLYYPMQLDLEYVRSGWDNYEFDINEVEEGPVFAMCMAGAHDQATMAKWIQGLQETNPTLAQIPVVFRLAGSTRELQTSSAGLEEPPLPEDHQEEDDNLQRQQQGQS
UniProt O60762: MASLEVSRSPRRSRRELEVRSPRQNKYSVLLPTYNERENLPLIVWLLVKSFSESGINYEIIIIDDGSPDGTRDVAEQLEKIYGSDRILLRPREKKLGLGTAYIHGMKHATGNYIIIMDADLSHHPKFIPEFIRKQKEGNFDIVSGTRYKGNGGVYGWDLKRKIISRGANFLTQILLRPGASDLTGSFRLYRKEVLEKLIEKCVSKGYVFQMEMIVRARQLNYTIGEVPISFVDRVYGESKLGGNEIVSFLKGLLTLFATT
UniProt O00429, whole entry, looked up: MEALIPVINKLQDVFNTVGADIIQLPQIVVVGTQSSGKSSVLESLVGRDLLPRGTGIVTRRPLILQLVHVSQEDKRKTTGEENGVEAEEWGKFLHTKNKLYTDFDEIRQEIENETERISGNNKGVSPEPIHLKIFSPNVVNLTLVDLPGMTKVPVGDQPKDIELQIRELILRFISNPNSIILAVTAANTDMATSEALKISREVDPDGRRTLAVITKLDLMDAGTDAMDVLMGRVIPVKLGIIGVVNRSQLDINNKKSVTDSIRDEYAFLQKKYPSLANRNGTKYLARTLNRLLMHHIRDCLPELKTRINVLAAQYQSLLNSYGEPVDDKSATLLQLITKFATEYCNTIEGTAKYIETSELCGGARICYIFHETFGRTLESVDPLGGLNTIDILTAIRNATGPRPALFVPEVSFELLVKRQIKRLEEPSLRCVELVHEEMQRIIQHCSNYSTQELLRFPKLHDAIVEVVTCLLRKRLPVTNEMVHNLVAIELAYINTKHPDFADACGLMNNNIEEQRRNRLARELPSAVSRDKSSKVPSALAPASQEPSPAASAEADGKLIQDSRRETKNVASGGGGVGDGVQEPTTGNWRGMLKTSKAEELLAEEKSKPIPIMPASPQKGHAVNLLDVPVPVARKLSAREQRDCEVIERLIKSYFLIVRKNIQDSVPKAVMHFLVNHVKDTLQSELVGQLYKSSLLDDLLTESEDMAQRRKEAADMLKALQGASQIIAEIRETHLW
UniProt Q3B7T1: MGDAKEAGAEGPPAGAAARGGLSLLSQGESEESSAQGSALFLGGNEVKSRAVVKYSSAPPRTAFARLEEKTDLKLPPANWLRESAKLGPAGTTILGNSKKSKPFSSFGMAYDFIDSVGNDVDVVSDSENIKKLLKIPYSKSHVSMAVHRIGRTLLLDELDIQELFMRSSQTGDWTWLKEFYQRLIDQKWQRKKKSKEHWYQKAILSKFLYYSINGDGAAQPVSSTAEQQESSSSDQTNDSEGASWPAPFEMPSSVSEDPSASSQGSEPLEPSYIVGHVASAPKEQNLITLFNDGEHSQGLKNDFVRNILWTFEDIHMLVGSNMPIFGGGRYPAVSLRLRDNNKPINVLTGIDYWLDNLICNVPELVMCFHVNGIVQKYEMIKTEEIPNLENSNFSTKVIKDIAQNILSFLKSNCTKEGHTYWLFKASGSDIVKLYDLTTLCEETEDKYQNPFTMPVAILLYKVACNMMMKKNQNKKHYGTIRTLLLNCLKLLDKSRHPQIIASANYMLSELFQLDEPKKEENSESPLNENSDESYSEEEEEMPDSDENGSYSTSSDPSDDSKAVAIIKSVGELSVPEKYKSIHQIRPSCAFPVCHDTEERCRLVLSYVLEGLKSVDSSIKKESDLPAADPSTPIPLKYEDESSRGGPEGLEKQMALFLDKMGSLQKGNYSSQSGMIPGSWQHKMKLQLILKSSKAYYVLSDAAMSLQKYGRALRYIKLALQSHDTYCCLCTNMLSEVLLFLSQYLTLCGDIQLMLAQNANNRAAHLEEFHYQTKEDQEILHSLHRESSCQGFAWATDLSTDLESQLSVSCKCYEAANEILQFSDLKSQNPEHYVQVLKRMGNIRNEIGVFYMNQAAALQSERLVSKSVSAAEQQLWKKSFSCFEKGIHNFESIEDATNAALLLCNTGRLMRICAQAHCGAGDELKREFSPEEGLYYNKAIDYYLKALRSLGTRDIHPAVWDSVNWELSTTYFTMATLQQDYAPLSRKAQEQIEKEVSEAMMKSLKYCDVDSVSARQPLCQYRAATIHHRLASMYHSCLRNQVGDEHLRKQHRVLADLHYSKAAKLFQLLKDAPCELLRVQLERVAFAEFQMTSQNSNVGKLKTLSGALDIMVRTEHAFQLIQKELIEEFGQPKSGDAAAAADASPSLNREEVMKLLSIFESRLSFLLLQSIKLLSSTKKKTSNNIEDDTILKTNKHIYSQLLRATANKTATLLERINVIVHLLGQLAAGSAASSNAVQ
UniProt O95147: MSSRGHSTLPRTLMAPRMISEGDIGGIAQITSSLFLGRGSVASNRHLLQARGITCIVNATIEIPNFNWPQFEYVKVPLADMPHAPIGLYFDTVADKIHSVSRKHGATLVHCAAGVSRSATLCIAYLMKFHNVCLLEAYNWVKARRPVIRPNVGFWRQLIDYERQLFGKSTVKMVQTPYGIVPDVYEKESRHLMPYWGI
UniProt Q9BTV6: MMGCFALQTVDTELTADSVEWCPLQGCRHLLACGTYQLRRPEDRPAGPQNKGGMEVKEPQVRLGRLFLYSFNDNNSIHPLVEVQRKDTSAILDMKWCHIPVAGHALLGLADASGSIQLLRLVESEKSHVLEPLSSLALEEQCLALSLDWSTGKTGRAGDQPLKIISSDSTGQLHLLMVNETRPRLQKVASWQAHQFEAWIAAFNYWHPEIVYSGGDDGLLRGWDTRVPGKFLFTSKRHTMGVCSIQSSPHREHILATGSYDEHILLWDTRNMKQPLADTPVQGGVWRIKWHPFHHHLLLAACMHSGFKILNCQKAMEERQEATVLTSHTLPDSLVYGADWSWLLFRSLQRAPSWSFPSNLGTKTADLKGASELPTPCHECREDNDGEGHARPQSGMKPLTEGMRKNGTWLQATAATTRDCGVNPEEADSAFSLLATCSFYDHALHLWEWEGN
UniProt Q96LL9: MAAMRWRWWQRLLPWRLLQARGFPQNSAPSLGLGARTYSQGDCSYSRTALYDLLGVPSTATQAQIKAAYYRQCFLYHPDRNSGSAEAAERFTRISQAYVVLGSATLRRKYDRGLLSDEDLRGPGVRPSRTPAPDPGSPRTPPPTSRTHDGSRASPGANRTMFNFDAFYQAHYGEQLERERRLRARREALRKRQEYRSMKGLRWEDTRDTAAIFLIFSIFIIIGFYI
UniProt Q13409, whole entry, looked up: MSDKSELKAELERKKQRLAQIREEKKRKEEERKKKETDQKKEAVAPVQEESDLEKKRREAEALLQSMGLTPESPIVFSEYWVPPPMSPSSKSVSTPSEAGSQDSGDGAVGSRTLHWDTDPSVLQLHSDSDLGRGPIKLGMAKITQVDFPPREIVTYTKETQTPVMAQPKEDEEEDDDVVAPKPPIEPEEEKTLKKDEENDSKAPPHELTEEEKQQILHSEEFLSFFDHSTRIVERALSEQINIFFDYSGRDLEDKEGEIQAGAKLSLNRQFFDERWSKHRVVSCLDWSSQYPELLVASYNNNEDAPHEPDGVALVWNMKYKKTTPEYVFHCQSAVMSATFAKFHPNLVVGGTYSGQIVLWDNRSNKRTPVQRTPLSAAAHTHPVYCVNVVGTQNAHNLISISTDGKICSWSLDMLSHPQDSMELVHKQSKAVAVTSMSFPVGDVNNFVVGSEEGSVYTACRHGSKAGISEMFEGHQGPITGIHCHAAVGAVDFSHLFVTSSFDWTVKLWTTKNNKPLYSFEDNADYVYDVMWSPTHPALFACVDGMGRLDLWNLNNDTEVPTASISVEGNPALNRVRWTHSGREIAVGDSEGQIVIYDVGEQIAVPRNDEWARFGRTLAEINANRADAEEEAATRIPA

Tests used:
Test in all cases: log2 fold change, soluble protein after heating vs DMSO (PISA); higher = thermal stabilisation; K562 cells, 10 uM, 30 min; active = over 0.2 and 3.5 SD of the protein, either way, in both replicates (recomputed)
erlotinib = compound: C#Cc1cccc(Nc2ncnc3cc(OCCOC)c(OCCOC)cc23)c1 [erlotinib]
Method in brief: (§1)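 K562 cells at 2×10^6 cells/mL were exposed to 10 μM compound for 30 min, then aliquots were heated for 3 min across 48°C-58°C, pooled, and extracted in PBS containing 0.5% NP-40 at 4°C. The supernatant after 21,000xg for 90 min was taken as soluble protein and measured by TMTpro 16plex LC-MS/MS with channel sums equalised. Thermal stability is reported relative to control samples, with values from duplicates. Fold changes are given on a log2 scale.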

[1] = compound: C1=CC(=C(C=C1Cl)C2=NC3=NC=CN=C3C(=N2)NC4=CC=NC=C4)F
Method in brief: as §1

[2] = compound: C1=CC(=CC=C1C2=NC3=C(N2)C=C(C=C3)C(=O)N)OC4=CC=C(C=C4)Cl
Method in brief: as §1

[3] = compound: C/C(=N\NC(=O)C1=CC(=CC=C1)S(=O)(=O)N2CCOCC2)/C3=C(C=CC(=C3)Cl)O
Method in brief: as §1

[4] = compound: C1=CC2=C(C=CC(=C2)/C=C\3/C(=O)NC(=NCC4=CC=CS4)S3)N=C1
Method in brief: as §1

[5] = compound: C1=CC2=NC=CN=C2C=C1/C=C/3\C(=O)NC(=O)S3
Method in brief: as §1

[6] = compound: C1=CC=C(C=C1)C2=NC(=C(N2)C3=CC=NC=C3)C4=CC(=C(C=C4)Cl)O
Method in brief: as §1

[7] = compound: C1=CC=C2C(=C1)C3=NNC4=CC=CC(=C43)C2=O
Method in brief: as §1

[8] = compound: C1CCN(C1)C(=O)NC2=CC=CC(=C2)NC3=NC=C(C(=N3)NCCC4=CN=CN4)Br
Method in brief: as §1

[9] = compound: C1CN(CCC1(CC2=CC=C(C=C2)Cl)N)C3=NC=NC4=C3C=CN4
Method in brief: as §1

Measured: log2 fold change

DNM1 (UniProt Q05193)
inactive: erlotinib 0.06 | [1] -0.144 | [2] -0.152

EBP (UniProt Q15125)
inactive: erlotinib 0.006 | [3] -0.049 | [1] -0.057 | [2] 0.026 | [4] 0.022 | [5] 0.016 | [6] 0.057 | [7] -0.195 | [8] 0.041 | [9] 0.019

ECSIT (UniProt Q9BQ95)
inactive: erlotinib 0.03 | [3] 0.04 | [1] -0.057 | [2] 0.016 | [4] 0.034 | [5] 0.021 | [6] 0.024 | [7] -0.036 | [8] -0.011 | [9] 0.026

DPM1 (UniProt O60762)
inactive: erlotinib -0.005 | [3] 0.046 | [1] 0.015 | [2] 0.043 | [4] 0.014 | [5] -0.012 | [6] -0.033 | [7] -0.014 | [8] -0.002 | [9] 0.004

DNM1L isoform 2 (UniProt O00429)
inactive: erlotinib -0.09 | [3] -0.03 | [2] 0.095 | [4] -0.151 | [5] 0.036 | [6] -0.135 | [7] 0.048 | [8] -0.012 | [9] 0.029

DPYSL2 (UniProt Q16555)
inactive: erlotinib -0.02 | [3] -0.104 | [1] 0.099 | [2] 0.072 | [4] 0.074 | [5] 0.003 | [7] 0.055 | [8] -0.044 | [9] 0.14

EDRF1 (UniProt Q3B7T1)
inactive: erlotinib 0.066 | [1] -0.038 | [2] -0.119 | [5] -0.017 | [6] -0.033

DUSP14 (UniProt O95147)
inactive: erlotinib 0.12 | [3] -0.077 | [1] -0.092 | [2] -0.017 | [4] 0.047 | [5] -0.081 | [7] -0.124 | [8] 0.119 | [9] 0.305

DPH7 (UniProt Q9BTV6)
inactive: erlotinib 0.052 | [3] -0.034 | [1] 0.021 | [2] -0.004 | [4] 0.07 | [5] 0.061 | [6] -0.067 | [7] 0.148 | [8] 0.008 | [9] 0.13

DNAJC30 (UniProt Q96LL9)
inactive: erlotinib -0.034 | [3] -0.151 | [2] 0.016 | [4] -0.073 | [7] -0.01

DYNC1I2 isoform 2 (UniProt Q13409)
inactive: erlotinib 0.018 | [3] 0.155 | [1] 0.057 | [2] -0.056 | [4] -0.202 | [5] -0.013 | [6] 0.17 | [7] 0.057 | [8] -0.062 | [9] 0.029
